Results are given in words; binding and its absence hold for the method and conditions named. Some binding calls cover weakened binding; strength is not graded here.
Target: T1, alpha1-anti-chymotrypsin (ACT) (UniProt P01011)
T1 sequence: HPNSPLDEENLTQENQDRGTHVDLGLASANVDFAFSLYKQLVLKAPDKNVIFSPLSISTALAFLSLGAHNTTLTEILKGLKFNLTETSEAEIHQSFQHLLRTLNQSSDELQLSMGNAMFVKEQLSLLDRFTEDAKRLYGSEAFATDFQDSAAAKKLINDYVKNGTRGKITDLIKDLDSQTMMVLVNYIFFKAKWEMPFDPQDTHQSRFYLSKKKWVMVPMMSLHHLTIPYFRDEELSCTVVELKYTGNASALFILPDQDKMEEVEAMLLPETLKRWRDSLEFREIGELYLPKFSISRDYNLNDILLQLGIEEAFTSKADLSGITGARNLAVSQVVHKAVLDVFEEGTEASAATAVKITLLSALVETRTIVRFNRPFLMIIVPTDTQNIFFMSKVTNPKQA
Assay: SEC; purified PSA incubated with ACT; complex purified on Sephacryl S-100 eluted with PBS pH 7.1; PSA immunoactivity of the fractions by PSA Delfia kit; peak fractions of approximately 100 kDa and approximately 30 kDa pooled; both purified

Sequences of proteins named here, by UniProt entry; tags and fusion partners are left off. Residues count along the entry.
UniProt P07288, residues 25-261: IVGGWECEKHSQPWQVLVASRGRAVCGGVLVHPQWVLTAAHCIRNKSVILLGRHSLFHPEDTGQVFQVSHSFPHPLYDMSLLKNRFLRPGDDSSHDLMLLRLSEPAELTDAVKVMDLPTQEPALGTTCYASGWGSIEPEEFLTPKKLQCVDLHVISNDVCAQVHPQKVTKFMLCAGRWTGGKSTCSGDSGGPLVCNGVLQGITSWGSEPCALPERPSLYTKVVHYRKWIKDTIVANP

For “prostate-specific antigen (PSA) (from UniProt P07288 25-261) (enzyme)”, the binding was “binds”.

Reference: article PMC2063392
